Our source for the binding values is publication PMC12138163.

The target of assay [1] is GFP-SJP39 (mature SJP39, 32-114) (jujube witches' broom (JWB) phytoplasma). The assay can be described thus: co-IP; co-expression in N. benthamiana leaves, total protein extracts on GFP-Trap magnetic agarose beads 1.5 h at 4°C; extraction buffer with 150 mM NaCl, 0.1% NP-40, MG132; blots with anti-GFP and anti-Myc.
The target of assay [2] is SJP39^32–77 in pDEST32, yeast two-hybrid bait (jujube witches' broom (JWB) phytoplasma). The assay can be described thus: two-hybrid; pairwise: pDEST32 bait and pDEST22 prey co-transformed into yeast AH109, growth on SD-LTH with 10 mM 3-AT at 28°C for 3–5 d.
Assay [3] concerns the target GST-SJP39^78–114 (jujube witches' broom (JWB) phytoplasma). The assay can be described thus: pull-down; purified GST fusions and His-tagged bHLH87 incubated with glutathione agarose at 4°C for 3 h; wash 20 mM Tris–HCl pH 7.4, 1 mM EDTA, 200 mM NaCl, 1 mM DTT; immunoblot with anti-GST or anti-His; both purified.
The target of assay [4] is GST-SJP39^32–77 (jujube witches' broom (JWB) phytoplasma). The description is as above.

These are yes or no findings as the source states them, for the method shown. For some of these results: Binding seen in cells or lysates may run through a third protein. For some of these results: Binding calls can cover weak binding; strength is not graded here. For some of these results: Where a sequence is shown, tags or fusion partners need not be part of it.

B1: AtbHLH87-Myc (protein, UniProt Q8S3D2 1-373)
chain: MEGLESVYAQAMYGMTRESKIMEHQGSDLIWGGNELMARELCSSSSYHHQLINPNLSSCFMSDLGVLGEIQQQQHVGNRASSIDPSSLDCLLSATSNSNNTSTEDDEGISVLFSDCQTLWSFGGVSSAESENREITTETTTTIKPKPLKRNRGGDGGTTETTTTTTKPKSLKRNRGDETGSHFSLVHPQDDSEKGGFKLIYDENQSKSKKPRTEKERGGSSNISFQHSTCLSDNVEPDAEAIAQMKEMIYRAAAFRPVNFGLEIVEKPKRKNVKISTDPQTVAARQRRERISEKIRVLQTLVPGGTKMDTASMLDEAANYLKFLRAQVKALENLRPKLDQTNLSFSSAPTSFPLFHPSFLPLQNPNQIHHPEC
B1: the binding entry in assay [1] is “binds”.

B2: AtbHLH87 in pDEST22, yeast two-hybrid prey (protein, UniProt Q8S3D2 1-373)
chain: B1 chain
For the molecule B2, the binding result in assay [2] is recorded as “no binding”.

B3: His-AtbHLH87 (protein, UniProt Q8S3D2 1-373)
chain: B1 chain
Take B3: the binding result in assay [3] and in assay [4] was “no binding” each time.
